Data source: PubChem BioAssay AID1259254 (NCATS, 2017)
The whole screen tested about 59,000 reagents; shown is an unselected part. About 1,550 of all reagents (2.6%) count as active. 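G2 share is only a proxy for re-replication; each gene was hit by three separate siRNAs, and active genes were retested.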 Reagents against one gene are numbered here. Further read-outs or replicates are left out here. Not given: the amount of reagent.

Test: 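Gene knock-downs that lead to re-replication, shown by excess G2 DNA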 (primary screen)
System: human HCT116 colorectal cancer cells
Reagents: single siRNA against human genes
Time to read-out: 3 days
Read-out: 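Nuclei stained with Hoechst and imaged; cell-cycle phase assigned by DNA content; G2 share scaled per plate, non-targeting siRNA 0%, GMNN siRNA 100%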
Reading the numbers: G2 robust z-score: higher = more G2 cells, more excess DNA replication
Call rule: 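Active siRNAs have a G2 robust z of 5 or more median absolute deviations over the median, which in these data means about 38% or higher of GMNN control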

{"gene symbol":"RMC1 (regulator of MON1-CCZ1)","siRNA no.":1,"G2 robust z-score":-1.1,"Call":"inactive"}
{"gene symbol":"RMC1 (regulator of MON1-CCZ1)","siRNA no.":2,"G2 robust z-score":0.462,"Call":"inactive"}
{"gene symbol":"RMC1 (regulator of MON1-CCZ1)","siRNA no.":3,"G2 robust z-score":-0.454,"Call":"inactive"}
{"gene symbol":"OR8G5 (olfactory receptor family 8 subfamily G member 5)","siRNA no.":1,"G2 robust z-score":-0.933,"Call":"inactive"}
{"gene symbol":"OR8G5 (olfactory receptor family 8 subfamily G member 5)","siRNA no.":2,"G2 robust z-score":0.614,"Call":"inactive"}
{"gene symbol":"OR8G5 (olfactory receptor family 8 subfamily G member 5)","siRNA no.":3,"G2 robust z-score":-0.297,"Call":"inactive"}
{"gene symbol":"RPL12 (ribosomal protein L12)","siRNA no.":1,"G2 robust z-score":4.55,"Call":"inactive"}
{"gene symbol":"RPL12 (ribosomal protein L12)","siRNA no.":2,"G2 robust z-score":2.64,"Call":"inactive"}
{"gene symbol":"RPL12 (ribosomal protein L12)","siRNA no.":3,"G2 robust z-score":-0.354,"Call":"inactive"}
{"gene symbol":"ABCF3 (ATP binding cassette subfamily F member 3)","siRNA no.":1,"G2 robust z-score":0.611,"Call":"inactive"}
{"gene symbol":"ABCF3 (ATP binding cassette subfamily F member 3)","siRNA no.":2,"G2 robust z-score":-0.457,"Call":"inactive"}
{"gene symbol":"ABCF3 (ATP binding cassette subfamily F member 3)","siRNA no.":3,"G2 robust z-score":-0.584,"Call":"inactive"}
{"gene symbol":"ECHDC3 (enoyl-CoA hydratase domain containing 3)","siRNA no.":1,"G2 robust z-score":-1.12,"Call":"inactive"}
{"gene symbol":"ECHDC3 (enoyl-CoA hydratase domain containing 3)","siRNA no.":2,"G2 robust z-score":1.07,"Call":"inactive"}
{"gene symbol":"ECHDC3 (enoyl-CoA hydratase domain containing 3)","siRNA no.":3,"G2 robust z-score":1.89,"Call":"inactive"}
{"gene symbol":"SLC39A11","siRNA no.":1,"G2 robust z-score":0.246,"Call":"inactive"}
{"gene symbol":"SLC39A11","siRNA no.":2,"G2 robust z-score":-0.158,"Call":"inactive"}
{"gene symbol":"SLC39A11","siRNA no.":3,"G2 robust z-score":-0.139,"Call":"inactive"}
{"gene symbol":"SPSB2 (splA/ryanodine receptor domain and SOCS box containing 2)","siRNA no.":1,"G2 robust z-score":3.38,"Call":"inactive"}
{"gene symbol":"SPSB2 (splA/ryanodine receptor domain and SOCS box containing 2)","siRNA no.":2,"G2 robust z-score":-0.256,"Call":"inactive"}
{"gene symbol":"SPSB2 (splA/ryanodine receptor domain and SOCS box containing 2)","siRNA no.":3,"G2 robust z-score":-1.4,"Call":"inactive"}
{"gene symbol":"CERS3 (ceramide synthase 3)","siRNA no.":1,"G2 robust z-score":3.25,"Call":"inactive"}
{"gene symbol":"CERS3 (ceramide synthase 3)","siRNA no.":2,"G2 robust z-score":-0.633,"Call":"inactive"}
{"gene symbol":"CERS3 (ceramide synthase 3)","siRNA no.":3,"G2 robust z-score":1.52,"Call":"inactive"}

Reprinted from above for reference:
{"gene symbol":"ABCF3 (ATP binding cassette subfamily F member 3)","siRNA no.":2,"G2 robust z-score":-0.457,"Call":"inactive"}
{"gene symbol":"ABCF3 (ATP binding cassette subfamily F member 3)","siRNA no.":3,"G2 robust z-score":-0.584,"Call":"inactive"}
